Results: PMC12742838, “Discovery and structural investigation of Varicella-Zoster virus gE-neutralizing antibodies isolated from a convalescent patient” (Protein & Cell, 2025)
No constants are given. Whether binding was seen depends on the method and setting. Some binding calls cover weakened binding; strength is not graded here.

Sequences of proteins named here, by UniProt entry; tags and fusion partners are left off. Residues count along the entry.
UniProt P09259, residues 31-537: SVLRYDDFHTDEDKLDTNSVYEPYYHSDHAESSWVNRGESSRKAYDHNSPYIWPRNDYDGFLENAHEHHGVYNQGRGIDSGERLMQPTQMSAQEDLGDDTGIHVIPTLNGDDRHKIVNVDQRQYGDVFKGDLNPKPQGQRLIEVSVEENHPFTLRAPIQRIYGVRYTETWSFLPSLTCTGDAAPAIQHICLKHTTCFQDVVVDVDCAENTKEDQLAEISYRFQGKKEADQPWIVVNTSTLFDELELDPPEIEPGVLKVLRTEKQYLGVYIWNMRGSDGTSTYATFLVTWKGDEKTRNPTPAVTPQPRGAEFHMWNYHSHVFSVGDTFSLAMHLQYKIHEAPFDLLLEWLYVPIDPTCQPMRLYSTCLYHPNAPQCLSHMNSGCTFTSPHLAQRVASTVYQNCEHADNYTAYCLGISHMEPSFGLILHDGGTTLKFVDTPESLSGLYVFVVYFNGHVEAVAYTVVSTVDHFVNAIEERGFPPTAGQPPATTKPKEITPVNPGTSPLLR
UniProt P14735, residues 42-1019: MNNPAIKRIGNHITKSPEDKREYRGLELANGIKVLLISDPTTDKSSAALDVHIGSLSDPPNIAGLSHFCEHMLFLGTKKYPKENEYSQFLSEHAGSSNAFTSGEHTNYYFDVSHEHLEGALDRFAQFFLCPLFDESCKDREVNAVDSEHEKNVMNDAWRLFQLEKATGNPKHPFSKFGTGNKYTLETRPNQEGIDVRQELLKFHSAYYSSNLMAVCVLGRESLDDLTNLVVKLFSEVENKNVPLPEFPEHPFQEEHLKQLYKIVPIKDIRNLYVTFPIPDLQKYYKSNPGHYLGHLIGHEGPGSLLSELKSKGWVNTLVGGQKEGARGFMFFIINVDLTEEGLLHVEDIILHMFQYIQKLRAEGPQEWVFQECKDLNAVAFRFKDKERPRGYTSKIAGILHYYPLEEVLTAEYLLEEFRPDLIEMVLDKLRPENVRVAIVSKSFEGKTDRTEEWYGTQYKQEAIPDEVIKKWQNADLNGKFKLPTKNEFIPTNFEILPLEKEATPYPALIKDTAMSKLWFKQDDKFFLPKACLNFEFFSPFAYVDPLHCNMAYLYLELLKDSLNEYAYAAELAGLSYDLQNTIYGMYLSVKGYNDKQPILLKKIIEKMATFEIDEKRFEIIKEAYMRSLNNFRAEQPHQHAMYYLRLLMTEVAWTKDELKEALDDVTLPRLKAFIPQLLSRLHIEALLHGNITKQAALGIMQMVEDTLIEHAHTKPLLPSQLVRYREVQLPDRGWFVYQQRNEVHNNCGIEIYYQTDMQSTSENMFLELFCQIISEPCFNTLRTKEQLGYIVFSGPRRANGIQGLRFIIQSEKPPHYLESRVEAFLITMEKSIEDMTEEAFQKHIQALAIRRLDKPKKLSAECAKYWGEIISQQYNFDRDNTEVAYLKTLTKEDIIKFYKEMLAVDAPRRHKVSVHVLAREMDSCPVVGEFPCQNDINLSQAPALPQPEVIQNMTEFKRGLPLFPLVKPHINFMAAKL

Molecular target: Varicella-zoster virus glycoprotein E (gE), recombinant protein, tag not told for these experiments (Varicella-zoster virus) (UniProt P09259)
Assay: ELISA; gE pre-incubated (presaturated) with an excess of each antibody, the complexes then tested for rIDE binding; result as percentage of competition; both purified

recombinant soluble insulin-degrading enzyme (rIDE, residues 42-1,019) (from UniProt P14735 42-1019)
binding: binds
